Laboratory results as given in PMC3334623.

What follows are binders tested against T1, Sin3a-3xFLAG (mouse) (UniProt Q60520) (assay: affinity purification with mass spectrometry; anti-FLAG M2 resin, 4 h at 4 °C, with 13-15 mg nuclear extract of E14tg2a ES cells expressing Sin3a-3xFLAG or 3xFLAG alone; IP buffer 25 mM HEPES-KOH pH 7.6, 140 mM KCl, 10% glycerol, 0.1% Igepal CA-630; washes with 250 mM KCl; elution with 3x FLAG peptide; SDS-PAGE and LC-MS/MS; four independent pull downs).
T1 sequence: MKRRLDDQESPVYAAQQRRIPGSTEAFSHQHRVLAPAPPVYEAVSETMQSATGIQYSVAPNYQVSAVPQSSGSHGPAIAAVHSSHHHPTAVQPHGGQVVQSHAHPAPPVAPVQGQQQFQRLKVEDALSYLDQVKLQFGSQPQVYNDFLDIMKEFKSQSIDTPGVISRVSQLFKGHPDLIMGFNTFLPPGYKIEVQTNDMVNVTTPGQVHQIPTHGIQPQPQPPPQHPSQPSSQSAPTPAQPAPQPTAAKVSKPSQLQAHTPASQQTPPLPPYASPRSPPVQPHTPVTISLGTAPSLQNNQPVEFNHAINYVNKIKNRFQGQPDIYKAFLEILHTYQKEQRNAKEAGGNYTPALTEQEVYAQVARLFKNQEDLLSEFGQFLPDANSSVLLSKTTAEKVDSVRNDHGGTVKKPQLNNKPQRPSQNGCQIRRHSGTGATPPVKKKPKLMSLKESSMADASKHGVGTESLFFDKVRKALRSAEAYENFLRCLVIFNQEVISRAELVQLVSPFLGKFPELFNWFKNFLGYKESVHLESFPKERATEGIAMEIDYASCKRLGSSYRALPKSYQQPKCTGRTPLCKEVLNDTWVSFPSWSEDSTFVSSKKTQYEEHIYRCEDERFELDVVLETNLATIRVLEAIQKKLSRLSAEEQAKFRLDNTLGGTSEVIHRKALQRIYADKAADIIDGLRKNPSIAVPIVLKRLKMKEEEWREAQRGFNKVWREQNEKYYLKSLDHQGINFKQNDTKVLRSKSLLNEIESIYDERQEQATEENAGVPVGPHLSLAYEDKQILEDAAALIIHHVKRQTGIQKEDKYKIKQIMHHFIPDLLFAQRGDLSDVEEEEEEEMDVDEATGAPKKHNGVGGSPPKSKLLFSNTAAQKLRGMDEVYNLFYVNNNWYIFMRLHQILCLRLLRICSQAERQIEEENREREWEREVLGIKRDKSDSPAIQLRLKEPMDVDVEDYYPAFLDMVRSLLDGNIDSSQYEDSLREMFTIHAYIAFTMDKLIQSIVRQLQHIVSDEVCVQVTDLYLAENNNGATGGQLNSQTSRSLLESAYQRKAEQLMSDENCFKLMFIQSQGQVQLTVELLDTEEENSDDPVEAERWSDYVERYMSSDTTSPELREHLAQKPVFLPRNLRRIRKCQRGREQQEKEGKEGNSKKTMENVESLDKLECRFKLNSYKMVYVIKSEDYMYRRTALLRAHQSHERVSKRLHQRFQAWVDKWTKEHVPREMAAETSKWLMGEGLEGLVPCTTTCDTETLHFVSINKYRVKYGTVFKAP

Binder | binding
Ing1 (protein, UniProt Q9QXV3 1-279) MLSPANGEQIHLVNYVEDYLDSIESLPFDLQRNVSLMREIDAKYQEILKELDDYYEKFKRETDGTQKRRVLHCIQRALIRSQELGDEKIQIVSQMVELVENRSRQVDSHVELFEAHQDISDGTGGSGKAGQDKSKSEAITQADKPNNKRSRRQRNNENRENASNNHDHDDITSGTPKEKKAKTSKKKKRSKAKAEREASPADLPIDPNEPTYCLCNQVSYGEMIGCDNDECPIEWFHFSCVGLNHKPKGKWYCPKCRGESEKTMDKALEKSKKERAYNR | binds
Sap130 (protein, UniProt Q8BIH0 1-1057) MSSQQFPRLGTPSPGLSQPPSQIASSGSAGLINQVATVNDEAGRDADVGTREHVGPSSSLPPREEKQEPVVVRPYPQVQMLPAHHAVASATPVAVTAPPAHLTPAVPLSFSEGLMKPPPKPTMPSRPIAPAPPSTMSLPPKVPGQVTVTMESSIPQASAIPVATISGQQGHPSNLHHIMTTNVQMSIIRSNAPGPPLHIGASHLPRGAAAAAVMSSSKVTTVLRPTSQLPNAATAQPAVQHLIHQPIQSRPPVTTSSTIPPAVVATVSATRAQSPVITTTAAHAADSTLSRPTLSIQHPPSAAISIQRPAQSRDVTTRITLPSHPALGTPKQQLHTMAQKTIFSTGTPVAAATVAPILATNTLPSTTTAGSVSHTQAPTSTIVTMTMPSHSSHATAVTTSNIPVAKVVPQQITHTSPRIQPDYPPERSSLIPISGHRASPNPVAMETRNDNRPSVPVQFQYFLPTYPPSAYPLAAHTYTPITSSVSTIRQYPVSAQAPNSTITAQTGVGVASTVHLNPMQLMTVDASHARHIQGIQPAPISTQGIQPAPIGTSGIQPAPIGTPGIHSAAPINTQGLQPAAMANQQPQPEGKTSAVVLADGATIVANPISNPFSAAPAATTVVQTHSQSASTNTPAQGSSPRPSILRKKPATDGMAVRKTLLPPQPPDVATPRVESSMRSASGSPRPAGAKPKSEVHVSIATPVTVSLETISNQNAEQPTVAVPPTAQQPPPTIPSMIAAASPPSQPAIALSTIPGAVPVTPPITTIAATPTLSAPVGGTPSTVLGPPVPEIKVKEEAEPVDITRPVSTVPPLATNTVSPSLALLASNLSMPPSDLPPGASPRKKPRKQQHVISTEEGDMMETNSTDDEKSAAKSLLVKAEKRKSPPKEYIDEEGVRYVPVRPRPPITLLRHYRNPWKAAYHHFQRYSDVRVKEEKKAMLQEIANQKGVSCRAQGWKVHLCAAQLLQLTNLEHDVYERLTNLQEGIIPKKKAATDDDLHRINELIQGNMQRCKLVMDQISEARDSMLKVLDHKDRVLKLLNKNGTVKKVSKLKRKEKV | binds
Mnt (protein, UniProt O08789 1-591) MSIETLLEAARFLEWQAQQQQRAREEQERLRLEREREREQEQKRASNLARLAHALPVEEPRIEAPPLPLSPPAPPPAPPPPLATPAPLTVIPIPVVTNSPQSLPPPPPLPPAAQPLPLAPRQPALVSTPGLSIKEPVTLPTRPQVPTPAPLLPDAKTTVAPTGSPKPLQPLPAPILTIAPHPGVQPQLAPQQPPPPTLGTLKLAPAEEAKSSEQKKRPGGIGTREVHNKLEKNRRAHLKECFETLKRNIPNVDDKKTSNLSVLRTALRYIQSLKRKEKEYEHEMERLAREKIATQQRLAELKHELSQWMDVLEIDRVLRQTGQPEDDQASTSTASEGEDNVDEEMEGDRAGLGPPKLNHRPQPELLKSALPTPSTAPAPLPTHPHPHPHPVALSPAHLPVQQQQPPQQKTPLPAPPPPPATPTQTLVPAPAHLVATAGGGSTVIAHTATTHASVIQTVNHVLQGPGGKHIAHIAPSAPSPAVQLAPATPPIGHITVHPATLNHVAHLGSQLPLYPQPVAVSQPVAVSHIAHTLSHQQVNGTAGLGPPATVMAKPAVGAQVVHHPQLVGQTVLNPVTMVTMPSFPVSTLKLA | binds
YTH domain family protein 1 (protein, UniProt P59326 1-559) MSATSVDPQRTKGQDNKVQNGSLHQKDAVHDNDFEPYLSGQSNPSNSYPSMSDPYLSSYYPPSIGFPYSLSEAPWSTAGDPPIPYLTTYGQLSNGDHHFMHDAVFGQPGGLGNNIYQHRFNFFPENPAFSAWGTSGSQGQQTQSSAYGSSYTYPPSSLGGTVVDGQTGFHSDSLNKAPGMNSLEQGMVGLKIGDVTTSAVKTVGSVVNSVALTGVLSGNGGTNVNMPVSKPTSWAAIASKPAKPQPKMKTKSGPIVGGALPPPPIKHNMDIGTWDNKGPAPKASAPQQTPSPQAAPQPQQVAQPLPVQPPPLVQPQYQSPQQPLQPRWVAPRNRNAAFGQSGGANSDSNSVGNAQPTSAPSVESHPVLEKLKAAHSYNPKEFDWNLKSGRVFIIKSYSEDDIHRSIKYSIWCSTEHGNKRLDGAFRSMSSKGPVYLLFSVNGSGHFCGVAEMKSPVDYGTSAGVWSQDKWKGKFDVKWIFVKDVPNNQLRHIRLENNDNKPVTNSRDTQEVPLEKAKQVLKIIASYKHTTSIFDDFSHYEKRQEEEEVVRKERQNRNKQ | binds
Hbp1 (protein, UniProt Q8R316 1-516) MVWEVKTNQMPNAVQKLLLVMDKRAPGMSDSLELLQCNENLPSSPGYNSCDEHMELDDLPELQAVQSDPTQSAIYQLSSDVSHQEYPRSSWSQNTSDIPENTHREDEVDWLTELANIATSPQSPLMQCSFYNRSSPVHIIATSKSLHSYARPPPVSSSSKSGPAFPHDHWKEETPVRHERANSESESGIFCMSSLSDDDDLGWCNSWPSTIWHCFLKGTRLCFHKESNKEWQDVEDFARAASCDNEEEIQMGTHKGYGSDGLKLLSHEESVSFGESVLKLTFDPGTVEDGLLTVECKLDHPFYVKNKGWSSFYPSLTVVQHGIPCCEIHIGDVCLPPGHPDAINFDDSGVFDTFKSYDFTPMDSSAVYVLSSMARQRRASLSCGGGPGTGQEFSGSEFSKSCGSPGSSQLSSSSLYAKAVKSHSSGTVSATSPNKCKRPMNAFMLFAKKYRVEYTQMYPGKDNRAISVILGDRWKKMKNEERRMYTLEAKALAEEQKRLNPDCWKRKRTNSGSQQH | binds
Arid4a (protein, UniProt F8VPQ2 1-1261) MKAADEPAYLTVGTDVSAKYRGAFCEAKIKTVKRLVKVKVLLKQDNTTQLVQDDQVKGPLRVGAIVETRTSDGSIQEAIISKLTDASWYTVVFDDGDERTLRRTSLCLKGERHFAESETLDQLPLTNPEHFGTPVIAKKTNRGRRSSLPITEDEKEEESSEEEDEDKRRLNDELLGKVVSVASTAESTGWYPALVVSPSCNDDVTVKKDQCLVRSFIDSKFYSIARKDIKELDILTLPESELCARPGLRRASVFLKGRIVPDNWKMDISEILESSSSDDEECPAEEHEEEKEKEAKKEEEELPEEELDPEERDNFLQQLYKFMEDRGTPINKPPVLGYKDLNLFKLFRLVYHQGGCGNIDSGAVWKQIYMDLGIPILNSAASYNVKTAYRKYLYGFEEYCRSANIQFRTIHHHEPKVKEEKKDFEDSMDEALKEAPEMPLLDVKSEPEENTDSNSESDREDTELKSPRGRRKIVRDANCIKKEIEEEKIEDKFLRDDLENKDAGDDDDDGDPAAKREHELLFGRKSTPKNKEKKIKKPEDSERDSDEEEEKSQEREETESRCDSEGEDEEDDTEPCLTGTKVKVKYGRGKTQKIYEASIKSTEMDDGEILYLVHYYGWNVRYDEWVKADRIIWPLDKGGPKKKQKKKVKNKEDSEKDEKRDEERQKSKRGRPPLKSTFSPNMPYSLSKTSNSEGKSDSCSSDSEADDQLEKSSGGEDLSPDVKEELEKNENAHDDKLDEENPKIVHISKENDRTQAQPSDTLTVEAGDSDQIVHIFGDKVDQVEEFKKQVEKSPKGKGRRSKTKDLSLELIKISPFGQEEAGSEAHGDVHSLEFSSLECKNFSSTEDDIDPYEKEKKLKRKILGQQSPEKKLRLDNGMEMTTGVSQERSDDGAGAEGMKGAHVEQHFETEGEGMPSLTAEPDQGLQELTSEKSDSPAEEEPVHTPLKEEEDAMPLIGPETLVCHEVDLDDLDEKDKTSIEDVVVEGSESNSLASVPPALPPVAQHNFSVASPLTLSQDESRSIKSESDITIEVDSIAEESQEGLCERESANGFEASVASGACSIIAHERESREKGQKRPSDGNSGLIAKKQKRTPKRTSAAAKTEKNGAGQSSDSEDLPAMDSSSNCTPVKRLTLPKSQKLPRSPARTSPHIKDAEKEKHREKHPNSSPRTYKWSFQLNELDNMNSTERISFLQEKLQEIRKYYMSLKSEVATIDRRRKRLKKKDREVSHAGASMSSASSDTGMSPSSSSPPQNVLAVECR | binds

These are yes or no findings as the source states them, for the method shown. Binding seen in cells or lysates may run through a third protein. These calls come from enrichment with a bait or labelling near it, and not all partners need be listed. Sequences can lack the tags named with a protein.
